Record: PubChem BioAssay AID1259254 (NCATS, 2017)
This is one part, drawn at random, of about 59,000 reagents. About 1,550 of all reagents (2.6%) count as active. 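G2 share is only a proxy for re-replication; each gene was hit by three separate siRNAs, and active genes were retested.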 Entries without a mark were called inactive. Reagents against one gene are numbered here. Not all columns of the deposit are shown. No sequences are given here. Not stated in the record: the amount of reagent.

Screen: 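Finding genes that stop cells copying their DNA twice in one cycle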 (primary screen)
Cells: human HCT116 colorectal cancer cells
Reagent: single siRNA against human genes
Time to read-out: 3 days
Detection: 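Nuclei stained with Hoechst and imaged; cell-cycle phase assigned by DNA content; G2 share scaled per plate, non-targeting siRNA 0%, GMNN siRNA 100%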
Scale: G2 robust z-score: higher = more G2 cells, more excess DNA replication
Call rule: 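Active siRNAs have a G2 robust z of 5 or more median absolute deviations over the median, which in these data means about 38% or higher of GMNN control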

SIRT1 #1: G2 robust z-score = -1.39
SIRT1 #2: G2 robust z-score = 0.839
SIRT1 #3: G2 robust z-score = 2.63
CCDC174 #1: G2 robust z-score = -0.764
CCDC174 #2: G2 robust z-score = 0.22
CCDC174 #3: G2 robust z-score = 2.11

Records listed so far whose gene name begins with C or c (3):
CCDC174 #1: G2 robust z-score = -0.764
CCDC174 #2: G2 robust z-score = 0.22
CCDC174 #3: G2 robust z-score = 2.11

The results go on.
DHX37 #1: G2 robust z-score = 6.73 (active)
DHX37 #2: G2 robust z-score = 4.33
DHX37 #3: G2 robust z-score = 0.649
CRHR1 #1: G2 robust z-score = 0.45
CRHR1 #2: G2 robust z-score = 2.4
CRHR1 #3: G2 robust z-score = -0.598
MVD #1: G2 robust z-score = -1.03
MVD #2: G2 robust z-score = 0.632
MVD #3: G2 robust z-score = 0.173
H2BC12 #1: G2 robust z-score = -0.459
H2BC12 #2: G2 robust z-score = -0.902
H2BC12 #3: G2 robust z-score = -0.886
